Assay results as given in patent publication US4650661A (priority 1982, dated 1987).
Non-standard residues stand in square brackets, D forms with d. Sta = CC(C)C[C@H](N)[C@@H](O)CC(=O)O

Assays:
[1] = general procedure: Boc solid-phase peptide synthesis; Boc-His(π--Bom)--O--Resin; conditions: whole synthesis, scale 0.2 mmol
[2] = general procedure: Boc solid-phase peptide synthesis; Boc-Lys(Cl2 Z)--O--Resin; conditions: whole synthesis, scale 0.24 mmole

Row | Substance | crude mass [1] [mgs] | crude mass [2] [mgs]
1 | H-HPFH[Sta]VIH-OH | 126 | 
2 | Sta-Lys peptide |  | 171.6
